Screen size: about 330,000 compounds; about 1,000 (0.3%) were called active. The shares of active, inactive and inconclusive entries below differ from those in the screen. Calls follow the shape of the dose curve; as a rule, active = well fitted inhibition curve with a large enough effect; inconclusive = small, poorly fitted or top-dose-only effect; inactive = no such curve, though single readings can be large or run the other way; tested in mouse RAW 264.7 cells. Potencies of inconclusive entries are doubtful fits and often do not repeat.
Assay: qHTS for Inhibitors of Cell Surface uPA Generation; also: nearly all actives have a fitted effect of over 55% in size
Conditions: cell surface uPA generation assay; series mostly up to 38.3 µM; activity change, negative = inhibition: at the top concentration
Procedure, shortened: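 Murine RAW 264.7 cells are treated for 24 h with compound up to 38.3 uM final. Cell ATP, measured by ATP-Lite, remains high if blocking the uPA cascade prevents LF from reaching the cytoplasm.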
% is scaled to controls: 0 for no effect and ±100 for the full control effect; potency is read from the fitted curve at half-maximal effect.

| Structure (SMILES) | Potency | activity change, negative = inhibition |
| --- | --- | --- |
| O=C(COC(=O)/C=C/C(=O)N1CCN(c2ccccc2)CC1)NC(c1ccccc1)c1ccccc1 | active: 6.31 µM | – |
| Cc1cc(C)c2c(n1)nn1c(NCCCN(C)C)cc(C)nc21 | – | inactive: 3.03% |
| COc1ccc(-c2noc(CCC(=O)N3CCN(c4ccc(Cl)cc4)CC3)n2)cc1 | inconclusive: 10 µM [inhibitor, partial curve, poor fit] | – |
| COc1ccccc1NS(=O)(=O)c1ccc(C(=O)Nc2ncccc2O)cc1 | inconclusive: 7.94 µM [inhibitor, partial curve, poor fit] | – |
| COc1ccc(/C=C2/SC(=O)NC2=O)cc1 | inconclusive: 8.91 µM [inhibitor, partial curve] | – |
| COc1ccc(C2Nc3ccccc3NC3=C2C(=O)CC(C)(C)C3)cc1 (stereo unspecified) | inconclusive: 12.6 µM [inhibitor, single point] | – |
| CCN(CC)CCNC(=O)CCc1c(C)nc2c(c(C)nn2-c2ccc(C)cc2)c1C | inconclusive: 3.98 µM [inhibitor, partial curve, poor fit] | – |
| O=[N+]([O-])c1ccc(Sc2ccccn2)nc1 | – | inactive: -1.29% |
| CN(CCOc1ccccc1)C(=O)C1CCC(=O)N(CCc2ccc(Cl)cc2)C1 (stereo unspecified) | – | inactive: 3.56% |
| CC1=CC(C)(C)N(C(=O)CNC2CCCC2)c2cc(C)ccc21 | – | inactive: -17.5% |
| Cc1cc(C(F)F)n2nc(C(=O)Nc3sc4c(c3C#N)CCC4)nc2n1 | – | inactive: 0.019% |
| O=c1c2ccccc2ncn1Cc1ccc(Cl)c(Cl)c1 | inconclusive: 12.6 µM [inhibitor, single point] | – |
| Cc1ccc(C(=O)NC(=S)/C=C2\N(C)c3ccccc3C2(C)C)cc1 | inconclusive: 7.08 µM [inhibitor, partial curve, poor fit] | – |
| O=C(NC1=C(NC2CCS(=O)(=O)C2)C(=O)c2ccccc2C1=O)c1ccccc1 (stereo unspecified) | inconclusive: 10 µM [inhibitor, partial curve, poor fit] | – |
| O=C(Nc1cccc2ccccc12)c1ccccc1Cl | inconclusive: 0.794 µM [inhibitor, full curve, poor fit] | – |
| CCOc1ccc(C(=O)Nc2ccc(S(=O)(=O)Nc3cc(C)on3)cc2)cc1 | inconclusive: 3.16 µM [inhibitor, partial curve, poor fit] | – |
| Nc1[nH]c(N=NC(=O)c2ccccc2)c2ccccc12 | – | inactive: -0.516% |
| CCOC(=O)COc1cc(N)c(Cl)cc1Cl | – | inactive: 1.3% |
| O=C(CCn1nc(-c2ccc(Cl)cc2)ccc1=O)N1CCN(c2ccc(F)cc2)CC1 | inconclusive: 31.6 µM [inhibitor, partial curve, poor fit] | – |
| C=CC(=O)NN(C)c1ncc(C(F)(F)F)cc1Cl | active: 3.55 µM | – |
| COc1cc2c(c(OC)c1OC)-c1ccc(NC(=O)c3ccc(F)cc3)c(=O)cc1[C@@H](NC(C)=O)CC2 | inconclusive: 5.01 µM [inhibitor, single point] | – |
| COc1ccc(CCNCc2cc(C)n(-c3ccc(OC)cc3)c2C)cc1 | inconclusive: 7.94 µM [inhibitor, single point] | – |

Single values from the entries so far:
In Potency, COc1ccc(C2Nc3ccccc3NC3=C2C(=O)CC(C)(C)C3)cc1 (stereo unspecified) has inconclusive: 12.6 µM [inhibitor, single point]
In activity change, negative = inhibition, Nc1[nH]c(N=NC(=O)c2ccccc2)c2ccccc12 has inactive: -0.516%
In activity change, negative = inhibition, Cc1cc(C(F)F)n2nc(C(=O)Nc3sc4c(c3C#N)CCC4)nc2n1 has inactive: 0.019%

(next part)

| Structure (SMILES) | Potency | activity change, negative = inhibition |
| --- | --- | --- |
| Cc1ccc(C(=O)N/N=C\c2sccc2C)cn1 | inconclusive: 12.6 µM [inhibitor, single point] | – |
| O=C(O)c1ccc(N/N=C/c2ccc3c(c2)OCO3)cc1 | – | inactive: -3.47% |
| COc1ccccc1N(CC(=O)NC1CCCC1)C(=O)c1oc(C(C)(C)C)cc1C | – | inactive: 12.9% |
| C/C(=C\c1ccccc1)C1NC(=O)c2c(sc3c2CCCC3)N1 (stereo unspecified) | inconclusive: 14.1 µM [inhibitor, single point] | – |
| C=CC[C@@H](CC(=O)N(CCO)Cc1ccccc1)C(=O)N[C@H](COC(=O)[C@@H](CC=C)Cc1ccc(F)cc1)C(C)(C)C | inconclusive: 20 µM [inhibitor, single point] | – |
| CCOc1ccccc1CN1CCN(Cc2ccc3cc(F)ccc3n2)CC1CCO (stereo unspecified) | – | inactive: 0.0502% |
| Cc1ccccc1C1c2[nH]c3ccccc3c2C[C@H]2C(=O)N(c3ccccc3C(=O)NCCCN3CCOCC3)C(=O)N12 (stereo partly specified) | inconclusive: 10 µM [inhibitor, partial curve, poor fit] | – |
| COC(=O)c1cc(NC2c3ccccc3C(=O)N2Cc2ccco2)cc(C(=O)OC)c1 (stereo unspecified) | – | inactive: 4.05% |
| C[C@H](NC(=O)c1nc[nH]c1C(=O)N[C@@H](Cc1ccccc1)C(=O)OC(C)(C)C)c1ccccc1 | inconclusive: 7.08 µM [inhibitor, single point] | – |
| Cc1ccccc1NC(=O)Cc1nc(COC(=O)c2ccc(S(C)(=O)=O)c([N+](=O)[O-])c2)cs1 | inconclusive: 12.6 µM [inhibitor, partial curve, poor fit] | – |
| Cn1c2ccccc2c2cc(/C=N/NC(=O)c3ccc(O)cc3O)ccc21 | inconclusive: 12.6 µM [inhibitor, single point] | – |
| Brc1ccc(CNc2nc3ccccc3n2CCN2CCCCC2)cc1 | inconclusive: 14.1 µM [inhibitor, single point] | – |
| O=C(Nc1ccc2c(c1)OCCO2)c1ccc(Cl)cc1 | inconclusive: 12.6 µM [inhibitor, partial curve, poor fit] | – |
| COc1cccc(NC(=O)c2ccc3c(c2)OCO3)c1 | inconclusive: 7.08 µM [inhibitor, partial curve, poor fit] | – |
| CCOc1[nH]n(-c2ccc(Cl)cc2)c(=O)c1C=Nc1ccc(OC)cc1 | – | inactive: -3.87% |
| COc1cc2c(cc1OC)-c1nncn1C(C)(C)C2 | – | inactive: -4.07% |
| Cc1ccc(C2c3[nH]c4ccccc4c3C[C@H]3C(=O)N(c4ccccc4C(=O)NCCN4CCOCC4)C(=O)N23)cc1 (stereo partly specified) | inconclusive: 5.62 µM [inhibitor, full curve, poor fit] | – |
| Cc1nc2cc(Nc3nnc(-c4ccccc4)c4ccccc34)ccc2n1C | inconclusive: 3.16 µM [inhibitor, partial curve] | – |
| COc1cc2ccccc2cc1C(=O)N/N=C/c1ccc2c(c1)OCO2 | inconclusive: 7.94 µM [inhibitor, partial curve, poor fit] | – |
| COc1ccccc1/C=C/C(=O)c1c2c(c(C)[nH]c1=O)CCCC2 | inconclusive: 2 µM [inhibitor, partial curve, poor fit] | – |
| O=C1NC(=S)SC1=Cc1cc(Br)ccc1O | – | inactive: -4.83% |
| O=C(c1ccc(Cn2cc(Cl)cn2)o1)N1CCN(Cc2ccc3c(c2)OCO3)CC1 | – | inactive: 7.57% |

| Structure (SMILES) | Potency | activity change, negative = inhibition |
| --- | --- | --- |
| O=C(O)c1cn(-c2ccccc2)nc1-c1ccc(F)cc1 | inconclusive: 15.8 µM [inhibitor, partial curve, poor fit] | – |
| O=[N+]([O-])c1ccc(/C=N/Nc2nc(N3CCCCC3)nc(N3CCCCC3)n2)cc1 | – | inactive: -1.09% |
| CCOc1ccc(Oc2c(C)oc3cc(O)ccc3c2=O)cc1 | – | inactive: -2.37% |
| Cc1cc(C(=O)N/N=C/c2ccc([N+](=O)[O-])cc2)c2ccccc2n1 | active: 2.82 µM | – |
| COc1ccc(OC)c(-c2nnc3n2N=C(c2ccc(OC)c(OC4CCOC4)c2)CS3)c1 (stereo unspecified) | inconclusive: 1.41 µM [inhibitor, partial curve, poor fit] | – |
| Cc1occc(=O)c1OCc1ccc(F)cc1 | inconclusive: 0.0141 µM [inhibitor, full curve, poor fit] | – |
| CC(C)(C)C#CCn1c(/C=[N+](\[O-])C2CCCCC2)nc2ccccc21 | inconclusive: 10 µM [inhibitor, single point] | – |
| CCOc1cc(CN2CCCC(N3CCN(c4ccc(F)cc4)CC3)C2)ccc1OC (stereo unspecified) | inconclusive: 10 µM [inhibitor, single point] | – |
| N#Cc1ccc(C23CC4(C2)[C@H](CN(Cc2cccnc2)[C@@H]4c2ccccc2)C3c2ccccc2)cc1 (stereo partly specified) | inconclusive: 12.6 µM [inhibitor, single point] | – |
| Cc1ccc(SCCNC(=O)c2ccc(C)c(S(=O)(=O)Nc3ccccc3C)c2)cc1 | inconclusive: 12.6 µM [inhibitor, single point] | – |
| C=CCN=c1scc(C)n1/N=C/c1ccc(O)c(O)c1 | inconclusive: 3.16 µM [inhibitor, partial curve, poor fit] | – |
| Cn1c2ccccc2c(=O)c2ccc(C#CC3(O)CCCCC3)cc21 | inconclusive: 4.47 µM [inhibitor, partial curve, poor fit] | – |
| COc1cc(-c2nc3ccc(C)cn3c2NCc2ccccc2)ccc1-c1cccc(Cl)c1 | inconclusive: 10 µM [inhibitor, single point] | – |
| COc1ccc(CSC2=NCCN2)cc1Br | inconclusive: 8.91 µM [inhibitor, single point] | – |
| COc1ccc(-c2nc3ccccc3o2)cc1OC | inconclusive: 10 µM [inhibitor, partial curve] | – |
| COc1ccccc1CNCC(=O)Nc1ccc(C(F)(F)F)cc1 | inconclusive: 28.2 µM [inhibitor, single point] | – |
| O=C(N/N=C/c1ccc([N+](=O)[O-])o1)c1sc2ccccc2c1Cl | inconclusive: 5.01 µM [inhibitor, partial curve, poor fit] | – |
| Oc1[nH]c2ccc(Br)cc2c1N=NC(=S)N1CCOCC1 | inconclusive: 2.82 µM [inhibitor, partial curve, poor fit] | – |
| COc1ccc(C2CC(c3cccc(Br)c3)=NN2c2ccc(S(N)(=O)=O)cc2)cc1 (stereo unspecified) | inconclusive: 12.6 µM [inhibitor, single point] | – |
| CC(=O)c1ccc(Nc2cc(C)nc3c(C)cccc23)cc1 | inconclusive: 5.01 µM [inhibitor, full curve, poor fit] | – |
| C[C@]12c3[nH]c4ccccc4c3CCN1C(=O)C(CC(=O)NCc1ccco1)C[C@@H]2C(=O)N1CCCCC1 (stereo partly specified) | active: 6.31 µM | – |
| CCCCOc1ccc(-c2cn3ccccc3n2)cc1[N+](=O)[O-] | active: 7.94 µM | – |

Source: PubChem BioAssay AID540303 (National Center for Advancing Translational Sciences (NCATS), 2011)
